# Reference: the supplement of paper PMC11150407
# Screen size: about 3,000 compounds; about 45 (2%) showed an effect of 50% or more. Some of the results follow.
# Test system: MOLM1 and UCSD/AML1 (averaged)
# Test: cell viability relative to DMSO control (POC); higher = less growth inhibition
# Conditions: 1 µM; 72 h
# Procedure: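 Primary viability screen in the 3q26 EVI1-high AML cell lines MOLM1 and UCSD/AML1, compounds at 1 uM for 72 h. ATP CellTiter-Glo read-out given as percent viable over DMSO control (POC), averaged over duplicates. This mapping covers the TimTec NDL-3000 natural derivative library, whose compounds are identified by TimTec catalogue codes (ST...).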
row,Compound,cell viability [%]
1,Cn1c(SCc2ccccc2F)nc2c(=O)[nH]cnc21,108
2,CCCCOc1ccc(C2=NOC(=O)/C2=C\C=C\c2ccccc2)cc1,97.7
3,Cc1oc(-c2cccc(Br)c2)nc1CSc1nc2c(=O)[nH]cnc2n1C,103
4,CC1CCCN(C(=O)CSc2nc3ccccc3c(=O)[nH]2)C1 (centres undefined),103
5,O=C(Nc1ccccc1[N+](=O)[O-])C1Cc2ccccc2CN1S(=O)(=O)c1ccc(F)cc1 (centres undefined),97.1
6,CCc1ccccc1NC(=O)Cn1c(=O)cc(C(=O)N2CCc3ccccc3C2)c2ccccc21,99.3
7,COc1cc(C2NC(=O)C(=O)/C2=C(\O)c2ccc(OC)c(OC)c2)ccc1O (centres undefined),105
8,CCc1cccc(C)c1NC(=O)CSc1nc2c(=O)[nH]cnc2n1-c1ccc(C)cc1,108
9,Cc1ccc2oc(=O)c(C)c(O)c2c1,95.7
10,CCCCOc1ccc(/C=C2/Oc3ccc(C(=O)OC)cc3C2=O)cc1OC,103
11,COc1cc(C2C(C(=O)OC3CCCCC3)=C(C)NC3=C2C(=O)CC(c2ccccc2)C3)cc(Br)c1O (centres undefined),93.5
12,CCCNC(=O)c1cc(=O)n(CC(=O)Nc2ccc(F)c(Cl)c2)c2ccccc12,91.9
13,Cc1ccc(-n2c(SCc3nc(-c4ccccc4Cl)oc3C)nc3c(=O)[nH]cnc32)cc1,116
14,COC(=O)C1Cc2c([nH]c3ccccc23)C(c2cccc(OC)c2OC)N1 (centres undefined),111
15,O=C(CCNc1n[nH]c(=O)[nH]c1=O)N/N=C/c1cccnc1,93
16,NNC(=O)C1Cc2c([nH]c3ccccc23)CN1 (centres undefined),99.6
17,COc1ccc2cc(-c3ccccc3Cl)c(=O)oc2c1,99.2
18,CC(C)c1ccc(/C=C/C(=O)O)cc1,99.9
19,Nc1ncnc2nc(SCc3ccccc3Cl)[nH]c12,88.8
20,Cc1ccc(-n2c(SCc3nc(-c4ccccc4)oc3C)nc3c(=O)[nH]cnc32)cc1,106
21,CCOc1ccc2oc(=O)cc(CN3CCN(CC(=O)N4CCC(C)CC4)CC3)c2c1,95.3
22,Cc1ccc2c(CN3CCN(CC(=O)Nc4ccc(F)cc4C)CC3)cc(=O)oc2c1,99.8
23,COc1cc(C2NC(=O)N(C)C(C)=C2C(=O)OCCOc2ccccc2)cc(Cl)c1O (centres undefined),109
24,O=c1c(O)c(-c2ccccc2)oc2cc(O)ccc12,100
25,COC(=O)CNC(=O)CN(c1ccc(OC)cc1OC)S(=O)(=O)c1ccccc1,94.1
26,Cn1c(SCC(=O)Nc2cccc(C(F)(F)F)c2)nc2c(=O)[nH]cnc21,89.5
27,CCc1ccc2oc(=O)cc(CN3CCN(c4ccccn4)CC3)c2c1,102
28,CCOc1cc(C(=O)Nc2c(C)cccc2C)cc(OCC)c1OCC,91.9
29,COc1ccccc1/C=C/C(=O)c1ccc2c(c1)OCO2,101

# Reformatted: results already given.
row	Compound	cell viability [%]
6	CCc1ccccc1NC(=O)Cn1c(=O)cc(C(=O)N2CCc3ccccc3C2)c2ccccc21	99.3
7	COc1cc(C2NC(=O)C(=O)/C2=C(\O)c2ccc(OC)c(OC)c2)ccc1O (centres undefined)	105
